Laboratory results: paper PMC4207616
These are yes or no findings as the source states them, for the method shown. Binding seen in cells or lysates may run through a third protein. Some entries that bind do so weakly or less than the wild type. Sequences can lack the tags named with a protein.

Target: T1, RRS1^SH-AA-His-Flag (Arabidopsis thaliana) (UniProt C4B7M5)
T1 sequence: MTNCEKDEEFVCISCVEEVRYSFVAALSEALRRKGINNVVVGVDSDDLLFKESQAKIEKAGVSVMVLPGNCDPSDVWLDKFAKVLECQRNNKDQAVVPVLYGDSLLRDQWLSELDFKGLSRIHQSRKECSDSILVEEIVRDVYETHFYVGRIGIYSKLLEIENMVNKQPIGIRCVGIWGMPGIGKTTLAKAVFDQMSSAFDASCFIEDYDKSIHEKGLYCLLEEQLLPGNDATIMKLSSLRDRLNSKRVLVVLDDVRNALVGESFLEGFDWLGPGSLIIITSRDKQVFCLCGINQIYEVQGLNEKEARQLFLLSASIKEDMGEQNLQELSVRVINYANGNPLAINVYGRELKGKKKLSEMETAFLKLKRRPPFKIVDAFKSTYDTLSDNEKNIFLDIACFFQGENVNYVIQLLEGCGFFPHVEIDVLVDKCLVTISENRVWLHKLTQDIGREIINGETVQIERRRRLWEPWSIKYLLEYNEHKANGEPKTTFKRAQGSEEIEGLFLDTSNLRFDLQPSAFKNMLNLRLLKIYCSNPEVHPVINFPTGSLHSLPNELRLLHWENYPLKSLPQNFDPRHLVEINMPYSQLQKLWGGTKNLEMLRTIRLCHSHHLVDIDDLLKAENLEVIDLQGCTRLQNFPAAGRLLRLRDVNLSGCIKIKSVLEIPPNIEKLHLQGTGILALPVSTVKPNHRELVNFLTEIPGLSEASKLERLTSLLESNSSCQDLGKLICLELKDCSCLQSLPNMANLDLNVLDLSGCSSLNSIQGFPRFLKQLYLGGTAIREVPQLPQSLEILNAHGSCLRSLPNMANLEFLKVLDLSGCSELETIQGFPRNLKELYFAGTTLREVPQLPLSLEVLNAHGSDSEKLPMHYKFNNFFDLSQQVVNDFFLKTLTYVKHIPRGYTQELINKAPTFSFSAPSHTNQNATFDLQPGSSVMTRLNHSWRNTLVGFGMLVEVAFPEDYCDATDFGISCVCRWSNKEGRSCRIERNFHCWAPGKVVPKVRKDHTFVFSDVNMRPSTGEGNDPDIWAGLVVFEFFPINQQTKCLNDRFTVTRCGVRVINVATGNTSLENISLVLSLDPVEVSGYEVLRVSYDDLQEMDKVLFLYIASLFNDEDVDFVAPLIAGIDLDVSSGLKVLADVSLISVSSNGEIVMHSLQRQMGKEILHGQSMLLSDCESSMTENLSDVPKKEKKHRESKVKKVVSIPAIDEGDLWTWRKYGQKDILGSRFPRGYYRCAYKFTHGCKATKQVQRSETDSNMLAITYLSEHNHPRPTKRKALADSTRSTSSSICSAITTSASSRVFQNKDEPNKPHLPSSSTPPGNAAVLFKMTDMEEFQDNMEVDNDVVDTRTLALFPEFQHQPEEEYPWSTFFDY
Assay: co-IP; RRS1-His-Flag and RPS4-HA variants transiently co-expressed in N. benthamiana (48 h after agroinfiltration); extract in GTEN buffer (10% glycerol, 100 mM Tris-HCl pH 7.5, 1 mM EDTA, 150 mM NaCl) with 5 mM DTT, protease inhibitors, 0.2% Nonidet P-40; anti-FLAG M2 or anti-HA affinity gel, 2 h at 4°C; immunoblot

B1: RPS4^WT-HA (protein, UniProt Q9XGM3 1-1217)
chain: METSSISTVEDKPPQHQVFINFRGADLRRRFVSHLVTALKLNNINVFIDDYEDRGQPLDVLLKRIEESKIVLAIFSGNYTESVWCVRELEKIKDCTDEGTLVAIPIFYKLEPSTVRDLKGKFGDRFRSMAKGDERKKKWKEAFNLIPNIMGIIIDKKSVESEKVNEIVKAVKTALTGIPPEGSHNAVVGALGNSNAGTSSGDKKHETFGNEQRLKDLEEKLDRDKYKGTRIIGVVGMPGIGKTTLLKELYKTWQGKFSRHALIDQIRVKSKHLELDRLPQMLLGELSKLNHPHVDNLKDPYSQLHERKVLVVLDDVSKREQIDALREILDWIKEGKEGSRVVIATSDMSLTNGLVDDTYMVQNLNHRDSLQLFHYHAFIDDQANPQKKDFMKLSEGFVHYARGHPLALKVLGGELNKKSMDHWNSKMKKLAQSPSPNIVSVFQVSYDELTTAQKDAFLDIACFRSQDKDYVESLLASSDLGSAEAMSAVKSLTDKFLINTCDGRVEMHDLLYKFSREVDLKASNQDGSRQRRLWLHQHIIKGGIINVLQNKMKAANVRGIFLDLSEVEDETSLDRDHFINMGNLRYLKFYNSHCPQECKTNNKINIPDKLKLPLKEVRCLHWLKFPLETLPNDFNPINLVDLKLPYSEMEQLWEGDKDTPCLRWVDLNHSSKLCSLSGLSKAEKLQRLNLEGCTTLKAFPHDMKKMKMLAFLNLKGCTSLESLPEMNLISLKTLTLSGCSTFKEFPLISDNIETLYLDGTAISQLPMNMEKLQRLVVLNMKDCKMLEEIPGRVGELKALQELILSDCLNLKIFPEIDISFLNILLLDGTAIEVMPQLPSVQYLCLSRNAKISCLPVGISQLSQLKWLDLKYCTSLTSVPEFPPNLQCLDAHGCSSLKTVSKPLARIMPTEQNHSTFIFTNCENLEQAAKEEITSYAQRKCQLLSYARKRYNGGLVSESLFSTCFPGCEVPSWFCHETVGSELEVKLLPHWHDKKLAGIALCAVVSCLDPQDQVSRLSVTCTFKVKDEDKSWVAYTCPVGSWTRHGGGKDKIELDHVFIGYTSCPHTIKCHEEGNSDECNPTEASLKFTVTGGTSENGKYKVLKCGLSLVYAKDKDKNSALETKYDMLIGKSFQETSEGVDGRVKKTKGKYVMPVEKNFQETTEGVDGRVNKKKKTRMDNGRPKKKQRSGRDDNQTRMQVELQEGNINSVIMHTVKNF
For B1, the binding was “binds”.
